Test: peptide synthesis
Settings: conjugation step, 215 nm

Nα-(20 kDa PEG)-[Lys16]ShK-Ala
final HPLC purity: >99%

Source: patent US20120121591A1 (priority 2009, published 2012)
